The nature of this assay: qHTS Assay for Modulators of Lamin A Splicing. As to conditions: HeLa LMNA splicing GFP/RFP minigene ratio, 48 h. Summed up:
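S3 HeLa stable clones carrying a lamin A-EGFP splicing minigene plus DsRed2 were seeded at 600 cells/well in Opti-MEM with 2% FBS, pin-dosed and incubated 48 h at 37°C. Acumen cytometry (488 nm) gave the GFP/RFP total-intensity ratio.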
A general note: qHTS replaces the single test concentration by a dilution series.

Setting [1] is: measured here: RFP viability control channel.
[2] abbreviates: measured here: GFP splicing reporter channel.

This is one part of the list. Further columns of the screen follow, without active or inactive calls. The list favours compounds with an active or inconclusive main result. The note in brackets gives the kind of curve behind each potency; many fits are weak.

As usually defined, the AC50 is the concentration at which the activity in the assay is half-maximal. On to `COC(=O)c1nnn(-c2nonc2N)c1CSc1nc2ccccc2s1`, for which the AC50 under setting [1] is 22.4 µM [rising, single point]. `COc1ccc(C=C(c2nc3ccccc3s2)c2nc3ccccc3s2)cc1O`: the AC50 is 0.0355 µM [falling, full curve, poor fit] under setting [2] and 5.62 µM [rising, single point] under setting [1].

Turning to `CCc1ccc(NC(=O)CSc2nc(-c3ccccc3)c(C#N)c(=O)[nH]2)cc1`, under setting [1], the concentration at half-maximal activity (AC50) was 0.0891 µM [falling, full curve, poor fit]. Turning to `COC(=O)c1ccc2nc(Nc3nc4ccc(F)cc4s3)sc2c1`, the AC50 under setting [1] was 0.501 µM [rising, partial curve]. Same read-out and setting: the value for `O=C(CCN1CCN(c2ccccc2)CC1)N/N=C/c1ccccc1O` was 25.1 µM [rising, partial curve, poor fit]; that for `COc1cccc(-c2c[nH]c(=O)[nH]c2=O)c1` was 3.16 µM [rising, single point]. With `CCCCn1c(N)c(N(CCC(C)C)C(=O)CSc2nnc(Nc3ccccc3)s2)c(=O)[nH]c1=O`, under setting [2], the AC50 was 0.02 µM [rising, full curve, poor fit].

For `O=C(CCCSc1nc2ccccc2c(=O)[nH]1)c1ccccc1`, the AC50 under setting [2] was 0.251 µM [falling, full curve, poor fit] and the AC50 under setting [1] is 0.00316 µM [falling, full curve, poor fit]. As for `CCOc1ccc(CNC(=O)C2CCCN(S(=O)(=O)c3ccc4c(c3)CCCC(=O)N4)C2)cc1` (centres undefined), the AC50 under setting [2] was 10 µM [falling, partial curve]. `CC(C)(C)c1nnc2sc(SCC(=O)c3cccs3)nn2c1=O`: the concentration at half-maximal activity (AC50) under setting [1] was 11.2 µM [rising, single point]. `O=C(c1ccc(CSc2ccccc2)cc1)N1CCCCCC1`: under setting [1], the AC50 was 25.1 µM [rising, single point]. For `COc1ccc(CNc2ccnc(-c3ccc4c(c3)OCO4)n2)c(OC)c1`, the AC50 under setting [2] is 12.6 µM [falling, partial curve]. On to `O=C1C(Nc2ccccc2)=C(N2CCCCC2)C(=O)c2ccccc21`, for which the AC50 is, setting by setting: under setting [2], 28.2 µM [falling, single point]; under setting [1], 0.141 µM [falling, partial curve].

With `Cc1ccc2c(c1)NC(=O)C(CC(=O)NCCCN1CCN(c3cc(Cl)ccc3C)CC1)O2` (centres undefined), the AC50 under setting [1] was 12.6 µM [rising, partial curve]. Still for that read-out and setting: the value for `Cc1cccc(/C=C\c2nc3ccccc3c(=O)[nH]2)c1` was 35.5 µM [rising, single point].

In the case of `CC(=O)c1cccc(Nc2nc(-c3cccc([N+](=O)[O-])c3)cs2)c1`, the AC50 by setting is: under setting [2], 35.5 µM [rising, single point]; under setting [1], 28.2 µM [rising, partial curve]. On to `CN(C)CC(O)COC(c1ccc(Cl)cc1)c1ccc(Cl)cc1` (centres undefined), for which the half-maximal activity concentration (AC50) is, setting by setting: under setting [2], 0.0708 µM [falling, partial curve]; under setting [1], 0.158 µM [falling, single point]. For `O=c1cc(NC2CCCCC2)c2ccccc2o1`, the AC50 reads like this: under setting [2], 35.5 µM [rising, single point]; under setting [1], 35.5 µM [rising, single point]. Consider `Cc1ccc(S(=O)(=O)C(CNC(=O)C(=O)NCCc2ccccc2)c2ccco2)cc1` (centres undefined), for which the AC50 under setting [2] is 0.0251 µM [falling, full curve, poor fit].

With `Cc1ccc(C(=O)Nc2nnc(-c3ccco3)o2)cc1C`, the AC50 under setting [1] was 22.4 µM [rising, partial curve].

As for `CC1(C)OC(C)(C)/C(=C/Nc2ccc(O)cc2)C1=O`, the half-maximal activity concentration (AC50) under setting [1] is 7.08 µM [rising, partial curve, poor fit]. On to `O=C(CCNS(=O)(=O)c1ccc2c(c1)CCN2C(=O)C1CC1)N1CCN(c2ccc(F)cc2)CC1`, for which the half-maximal activity concentration (AC50) under setting [2] was 1.26 µM [falling, full curve] and the AC50 under setting [1] is 20 µM [falling, partial curve, poor fit].

In the case of `O=[N+]([O-])c1cccc(COc2ncnc3cc([N+](=O)[O-])ccc23)c1`, the concentration at half-maximal activity (AC50) under setting [1] is 20 µM [falling, single point]. Turning to `Cc1ccccc1NC(=O)N1CCCC(c2nc(-c3ccc(C(C)C)cc3)no2)C1` (centres undefined), the AC50 runs as follows: under setting [2], 15.8 µM [rising, single point]; under setting [1], 20 µM [rising, single point]. For the compound `O=c1c2c([nH]n1-c1ccccc1)CCCC2`, under setting [2], the concentration at half-maximal activity (AC50) is 1.58 µM [rising, full curve, poor fit]. Turning to `N#C/C(C(=S)Nc1ccccc1)=C1/NN=C(N2CCOCC2)N1c1ccccc1`, the AC50 under setting [1] was 2 µM [rising, partial curve, poor fit]. Still for that read-out and setting: the value for `Cc1onc(-c2ccccc2)c1C(=O)Nc1nc(-c2ccccc2)cs1` was 14.1 µM [rising, single point]. In the case of `CCn1c2c(c(=O)n3ncc(C(=O)Nc4cccc(Cl)c4C)c13)CN(Cc1ccc(OC)cc1)CC2`, the AC50 under setting [2] is 35.5 µM [falling, single point]. `Cc1ccccc1OCC(O)Cn1c(NCc2ccco2)nc2c1c(=O)n(C)c(=O)n2C` (centres undefined): the concentration at half-maximal activity (AC50) under setting [2] is 25.1 µM [rising, single point] and the AC50 under setting [1] is 12.6 µM [rising, single point]. With `Cc1ccc(-c2csc(-c3c[nH]c4ccccc34)n2)c(C)c1`, under setting [2], the concentration at half-maximal activity (AC50) was 35.5 µM [rising, single point].

Take `Oc1[nH]c2ccccc2c1N=NC(=S)NCC1CCCO1` (centres undefined): the half-maximal activity concentration (AC50) under setting [1] is 17.8 µM [rising, partial curve].

For `O=S1(=O)Nc2c(ccc3cccnc23)-c2ccccc21`, the AC50 under setting [1] was 0.794 µM [rising, full curve].

As for `COc1ccc(C(=O)/C=C/c2ccc(OC)c(CN3CCOCC3)c2)cc1`, under setting [2], the AC50 was 35.5 µM [falling, single point]. Regarding `COc1cccc(-c2noc(C3CCCN(S(=O)(=O)c4cccc(Cl)c4C)C3)n2)c1` (centres undefined), the half-maximal activity concentration (AC50) was 35.5 µM [rising, single point] under setting [2] and 25.1 µM [rising, partial curve] under setting [1]. In the case of `Cc1ccc(NC(=O)c2ccc(-n3c(C)nnc3C)cc2)cc1F`, under setting [2], the AC50 was 35.5 µM [falling, partial curve, poor fit]. As for `Cc1cc2ccccc2c(=O)n1CC(=O)NCC(=O)N1CCN(c2ccccc2F)CC1`, the AC50 under setting [1] is 6.31 µM [falling, single point]. As to `S=C(NNc1ccnc2cc(Cl)ccc12)Nc1ccccc1Cl`, the AC50 under setting [2] was 5.01 µM [rising, partial curve, poor fit] and the AC50 under setting [1] is 12.6 µM [rising, partial curve]. Regarding `CCOC(=O)c1c(C)nc(C(Cl)(Cl)Cl)nc1N`, the AC50 under setting [1] was 2 µM [rising, full curve, poor fit].

For `N#Cc1ccc(C(=O)Nc2ccc(S(=O)(=O)NC3=NCCCCC3)cc2)cc1`, the AC50 under setting [1] was 14.1 µM [rising, single point]. Still for that read-out and setting: the figure for `O=C(NCc1cccs1)c1cc(-c2ccccc2)nc2ccccc12` is 20 µM [rising, single point]. `CCCc1nc(SCc2cc(=O)c3ccc(C)c(C)c3[nH]2)n[nH]1`: the concentration at half-maximal activity (AC50) under setting [2] is 0.282 µM [rising, full curve, poor fit]. On the same count and under the same terms, the value for `COc1ccc(/C=N\NC(=O)c2cccc(Br)c2)c(OC)c1` was 0.0447 µM [rising, full curve, poor fit]. On to `COc1ccc(C(CNC(=O)COc2ccc(Br)cc2F)N2CCCC2)cc1` (centres undefined), for which the AC50 under setting [1] is 0.398 µM [rising, partial curve]. Turning to `O=C(Nc1cccs1)Nc1ccc(Br)cc1F`, the AC50 under setting [1] is 10 µM [rising, partial curve, poor fit]. `O=C(CCC(=O)N(CC(=O)NC1CCCC1)C1CCCC1)Nc1ccccn1`: under setting [1], the AC50 is 2.51 µM [falling, partial curve]. Same read-out and setting: the figure for `CCOc1ccc(N2CC(NC(=O)c3ccc(S(=O)(=O)N4CCCCC4)cc3)CC2=O)cc1` (centres undefined) is 10 µM [falling, partial curve, poor fit]; for `Cc1cccc(-c2cc(C(=O)NCCCn3ccnc3)c3ccccc3n2)c1` it is 12.6 µM [rising, single point]. Still for that read-out and setting: the value for `Cc1ccc(/C=N/NS(=O)(=O)c2ccccc2)o1` was 3.98 µM [falling, full curve].

On to `CC(=O)c1c(C)[nH]c(C(=O)OCC(=O)Nc2cccc(S(=O)(=O)N3CCCC3)c2)c1C`, for which the concentration at half-maximal activity (AC50) under setting [1] was 3.55 µM [rising, full curve]. Consider `CCOC(=O)C(=CNc1cc(C)nn1-c1ccccc1)C(=O)OCC`, for which the AC50 by setting is: under setting [2], 17.8 µM [rising, partial curve]; under setting [1], 17.8 µM [rising, single point]. Take `O=C(C1=C(O)C(=O)N(CCOCCO)C1c1cccs1)c1cccs1` (centres undefined): the AC50 under setting [1] was 2 µM [falling, full curve, poor fit].

With `COc1ccccc1N(C)S(=O)(=O)c1ccc(C(=O)OCC(N)=O)cc1`, the concentration at half-maximal activity (AC50) under setting [2] is 0.794 µM [falling, single point].

Turning to `Cc1cc(NC(=O)c2cc(-c3cccs3)on2)nn1Cc1ccc(Cl)cc1`, the AC50 by setting is: under setting [2], 2.82 µM [rising, full curve, poor fit]; under setting [1], 3.55 µM [rising, single point]. `Cc1ccc(C2=NN(S(C)(=O)=O)C(c3ccc4c(c3)OCO4)C2)cc1` (centres undefined): the AC50 under setting [1] was 14.1 µM [rising, single point].

In the case of `Cc1cccc(-n2ncc3c(NC4CCCCC4)ncnc32)c1`, the AC50 is, setting by setting: under setting [2], 0.126 µM [rising, partial curve]; under setting [1], 11.2 µM [rising, partial curve]. Regarding `C[C@H](N=C(NC#N)Nc1ccncc1)C(C)(C)C`, under setting [2], the AC50 is 0.0794 µM [falling, full curve, poor fit]. Consider `CCCn1c(=O)c(C(=O)NCc2ccc(OC)c(OC)c2)c(O)c2ccccc21`, for which, under setting [2], the AC50 was 6.31 µM [rising, partial curve].

As to `O=S1(=O)c2ccccc2N(Cc2cccc(Cl)c2)c2ccccc21`, under setting [1], the concentration at half-maximal activity (AC50) is 0.00794 µM [falling, full curve, poor fit].

Consider `CCOc1ccc(/C=N/NC2=NCCCCC2)cc1`, for which the half-maximal activity concentration (AC50) is 0.0224 µM [falling, full curve, poor fit] under setting [2] and 0.001 µM [falling, full curve, poor fit] under setting [1].

Source of the values: PubChem BioAssay AID1487 (National Center for Advancing Translational Sciences (NCATS), 2009).
